Article PMC12256043, “Integrated platform for structural and functional analysis of terpene synthases of Cannabis sativa” (PeerJ, 2025)
No constants are given. Whether binding was seen depends on the method and setting. Values belong to the binder of their own block, whether it stands above or below them.

Assays:
Experiment in all cases: SEC; HiPrep 16/60 Superdex 200; 25 mM HEPES pH 7.0, 10 mM MgCl2, 100 mM KCl, 1 mM DTT; 1 mL/min; Ni-affinity eluted fractions loaded; both purified
[1] = molecular target: CsTPS20CT, hedycaryol synthase (Cannabis sativa)
[2] = molecular target: CsTPS5FN, β-myrcene/(-)-α-pinene synthase (Cannabis sativa)
[3] = molecular target: CsTPS19BL, nerolidol/linalool synthase (Cannabis sativa)
[4] = molecular target: CsTPS9FN, β-caryophyllene/α-humulene synthase (Cannabis sativa)
[5] = molecular target: CsTPS16CC, germacrene-B synthase (Cannabis sativa)

B2: CsTPS5FN, β-myrcene/(-)-α-pinene synthase (enzyme, UniProt A0A1V0QSG0 1-573)
chain: MSLSGLISTTTFKEQPAIVRRSGNYKPPLWDAHFIQSLQVIYTEESYGKRINELKEDVRRILEKEAENPLVKLEQINDLSRLGISYHFEDQIKAILNLTYNNNNALWKKDNLYATALHFKLLRQYGFNPVSSEIFNAFKDEKKEFKESLSKDVKGMVCLYEASFYSFRGEPILDEARDFTTKHLKQYLMMTRQGQNVDHDDDNDLMVKLVEHALELPVHWRMKRLEARWFIDMYAEMSHHHHMNSTFLQLAKLDFNVVQSTYQEDLKHVVRWWKTTSLGERLPFARDRIVEIFLWSVGLKFEPQFRYCRKMLTKIGQLVTTMDDIFDVYGTLDELSLFQHALGRWDINTIDQLPDYMKIFFLATYNVVNEMAYDVLKQNGILIIKYLKKTWTDLCKCYMLEANWYHSGYTPSLEEYIKNGWISIAEPLILVNLYCLITNPIKEDDIDCLLQYPTFIRISGIIARLVDDLGTSSDELKRGDNPKSIQCYMKENGICDEKNGREHIRNLISETWKEMNEARVGESPFSQAFIETAIDFVRTAMMIYQKEQDGVGTNIDHYTKDGIISLFFTSIPI
binding [2]: no binding

B4: CsTPS9FN, β-caryophyllene/α-humulene synthase (enzyme, UniProt A0A7J6HK32 1-556)
chain: MSYQVLASSQNDKVSKIVRPTTTYQPSIWGERFLQYSISDQDFSYKKQRVDELKEVVRREVFLECYDNVSYVLKIVDDVQRLGLSYHFENEIEKALQHIYDNTIHQNHKDEDLHDTSTRFRLLRQHGFMVSSNIFKIFKDEQGNFKECLITDIPGLLSLYEASHLSYIGENILDEALAFTTTHLHQFVKNEKTHPLSNEVLLALQRPIRKSLERLHARHYISSYENKICHNKTLLELAKLDFNLLQCLHRKELSQISRWWKEIDFVHKLPFARDRIVELYLWLLGVFHEPELSLARIISTKVIALASVADDIYDAYGTFEELELLTESINRWDLNCADQLRPECLQTFYKVLLNCYEEFESELGKEESYKVYYAREAMKRLLGAYFSEARWLHEGYFPSFDEHLKVSLISCGYTMMIVTSLIGMKDCVTKQDFEWLSKDPKIMRDCNILCRFMDDIVSHKFEQQRDHSPSTVESYMRQYGVSEQEACDELRKQVINSWKEINKAFLRPSNVPYPVLSLVLNFSRVMDLLYKDGDGYTHIGKETKNSVVALLIDQIP
binding [4]: no binding

More lines, now with the values ahead:

binding [1]: no binding
B1: CsTPS20CT, hedycaryol synthase (enzyme, UniProt A0A4Y5QVX6 1-551)
chain: MSNIQVLASSQLSDKIIARPTTKFHPSIWGDRFLHYNISEQDLVCKQEKVEELIQVVKKEILSSNHDQLKLIDNLQRLGLSYHFESEIEKLLEQLSITHHQNHHDLHDASLWFRLLRQHGFNVSSSIFEKFKDEEGNFKESLITDVPGLLSLYEASHLSYVGESILDEALAFTTTHLKAIVANSKDHPLSHQISIVLHRPLRKTIERLHARFYISIYEKDASHNKLLLELAKLDFNLLQCFHKKELSEITRWWKEHEFAKKFPFARDRMVELYFWILGVYYEPKYSRARKLLTKVIALTSITDDIYDAYGTIDELQLLTKAIQRWDINCMDKLKQEYLKTYYKVMLDSYEEFEKELKKEELYKLEYAKEEMKRIIGGYFEEARWLNEGYFPSFDEHLRVSYVSSGNVLLIATSFVGMHDVVTHETLDWLSKDPKIVSASTLLSRFMDDIGSRKFEQKRNHIPSTVDCYMKQYGVSEEEAIKELNKRVDTHWKEINEDFIRPAVVPFPILVRVLNFTKIVDLLYKEGDDQYTNVGKVLKESIAALLIDSIPL

binding [3]: no binding
B3: CsTPS19BL, nerolidol/linalool synthase (enzyme, UniProt A0A4Y5QZ62 1-554)
chain: MALSIMSSYASFRPFKPSSSLSSSQNIIRNFDENSKYHIRSNGDLTPQKDLDKYRDVLRKADPFDEGLKMIDAIQRLGIDYIFEEEIDKIIQSQSAYKFFREFEHDHHHHQDLYDVALRFRLLRQHGHFVPADIFNKYKDNNKGCFDTRLREDIKGLLSLYEASHLCIEGENILDEAALFSAQHLEASMTRLHRYDQYQAKYVATTLQNPTHKSLSKFTAKDLFGVYPSENGYINLFQQLAKVEFNRVQSLHRMEIDKVTRWWRDIGLAKELTFARDQPVKWYIWSMACLTDPILSKQRVALTKSISFIYVIDDIFDMYSSLDELILFTQAVSSWEYSAIEKLPDSMKTCFKALDNMINESSHTIYQKRGWSPLHSLRKTWASLCEAFLVEAKWFASRHVPKAKEYLENGVVSSGVHVVLVHIFVLLDETSLTQKTLDFVENMPSIITSTASILRLWDDFGSAKDENQEGHDGSYVECYMKELGGSVEDAREEMMEKISDAWKCLNKECILRNPAFPPPFLKASLNLARLVPLMYNYDHNQRLPHLEEHIKSLL

binding [5]: no binding
B5: CsTPS16CC, germacrene-B synthase (enzyme, UniProt A0A4Y5L9K3 1-571)
chain: MSSQVLASSQKNDKTQNIIRPTTKFHPPIWGDRFLHYNISEQELEYKEGQVEELKEVVRKEIFHGNNKRNIINVSKQLKLIDDVERLGLSYHFESEIEKKLQHIYEITTNNIDHQDQHYYYSNHDEDLHDVSIRFRLLRQHGFNISSNIFEKFKDESGKFKESLKSDIEGMLSLYEASYLSYVEENILDEALAFTTTNLKLVANKKEHPLSHEISLALYRPLRKTLVRLYARHYISIYEKQPSHNKVLLQFAKLDFNLLQSLHKKELSEISRWWKELDLANKLPFARNRIVELYLWILGVFHEPQFSLARKILIKAISMASVADDIYDAYGTFEELELLTEAILRWDISFIDKLSPDYLKTYYKVFLNSYEECEKDLKKEERYKLHYAKESMKKLIQAYFHEAQWLNQGHFPSFDEHLKVSFVSSGYPMLIETSFVGMQDVKTNQVFEWLSTQPKIFRACTIISRFMDDLVSRKFEQERNHVPSTVDCYMKQYGVSEQEACDELNKQVVNLWKEINQEFLRPTSMPSSILVRILNFTKVLDIIYKEGDGYTHVGKLVKDSVAALLIDPIPL
